Reference: the supplement of paper PMC12595434, “Development of retinoid nuclear receptor pathway antagonists through targeting aldehyde dehydrogenase 1A3” (iScience, 2025)
The list shows a part of the results. Single values of this set are uncertain.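 Tm was set to 64 °C where no melting was found, and many curves are irregular.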

Sequences of proteins named here, by UniProt entry; tags and fusion partners are left off. A change or cut given only in a name is not applied to a line headed by its entry.
UniProt P51784: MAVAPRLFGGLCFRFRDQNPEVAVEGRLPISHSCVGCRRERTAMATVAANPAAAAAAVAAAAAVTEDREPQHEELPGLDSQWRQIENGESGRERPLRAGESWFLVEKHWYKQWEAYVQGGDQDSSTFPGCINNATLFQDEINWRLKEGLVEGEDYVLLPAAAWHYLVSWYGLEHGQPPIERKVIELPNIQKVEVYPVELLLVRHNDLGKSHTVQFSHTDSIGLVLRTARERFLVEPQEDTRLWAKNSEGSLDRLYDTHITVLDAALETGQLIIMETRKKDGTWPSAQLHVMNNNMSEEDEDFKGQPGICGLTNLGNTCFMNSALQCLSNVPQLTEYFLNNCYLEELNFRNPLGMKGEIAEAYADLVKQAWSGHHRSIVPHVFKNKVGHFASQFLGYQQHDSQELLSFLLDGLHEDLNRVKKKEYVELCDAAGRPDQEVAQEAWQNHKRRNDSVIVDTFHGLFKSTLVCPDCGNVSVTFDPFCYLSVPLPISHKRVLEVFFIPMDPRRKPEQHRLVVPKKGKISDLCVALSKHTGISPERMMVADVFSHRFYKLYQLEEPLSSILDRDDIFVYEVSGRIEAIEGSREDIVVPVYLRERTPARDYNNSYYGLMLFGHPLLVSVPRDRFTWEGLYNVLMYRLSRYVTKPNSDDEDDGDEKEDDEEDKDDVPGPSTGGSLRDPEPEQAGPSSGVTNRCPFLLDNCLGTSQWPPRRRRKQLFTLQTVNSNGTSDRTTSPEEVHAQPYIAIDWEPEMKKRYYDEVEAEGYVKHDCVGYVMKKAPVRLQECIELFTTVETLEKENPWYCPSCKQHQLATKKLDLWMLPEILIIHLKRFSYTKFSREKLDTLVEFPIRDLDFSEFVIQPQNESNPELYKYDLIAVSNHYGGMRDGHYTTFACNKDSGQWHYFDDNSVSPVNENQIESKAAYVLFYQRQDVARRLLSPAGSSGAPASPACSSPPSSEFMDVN
UniProt P42695: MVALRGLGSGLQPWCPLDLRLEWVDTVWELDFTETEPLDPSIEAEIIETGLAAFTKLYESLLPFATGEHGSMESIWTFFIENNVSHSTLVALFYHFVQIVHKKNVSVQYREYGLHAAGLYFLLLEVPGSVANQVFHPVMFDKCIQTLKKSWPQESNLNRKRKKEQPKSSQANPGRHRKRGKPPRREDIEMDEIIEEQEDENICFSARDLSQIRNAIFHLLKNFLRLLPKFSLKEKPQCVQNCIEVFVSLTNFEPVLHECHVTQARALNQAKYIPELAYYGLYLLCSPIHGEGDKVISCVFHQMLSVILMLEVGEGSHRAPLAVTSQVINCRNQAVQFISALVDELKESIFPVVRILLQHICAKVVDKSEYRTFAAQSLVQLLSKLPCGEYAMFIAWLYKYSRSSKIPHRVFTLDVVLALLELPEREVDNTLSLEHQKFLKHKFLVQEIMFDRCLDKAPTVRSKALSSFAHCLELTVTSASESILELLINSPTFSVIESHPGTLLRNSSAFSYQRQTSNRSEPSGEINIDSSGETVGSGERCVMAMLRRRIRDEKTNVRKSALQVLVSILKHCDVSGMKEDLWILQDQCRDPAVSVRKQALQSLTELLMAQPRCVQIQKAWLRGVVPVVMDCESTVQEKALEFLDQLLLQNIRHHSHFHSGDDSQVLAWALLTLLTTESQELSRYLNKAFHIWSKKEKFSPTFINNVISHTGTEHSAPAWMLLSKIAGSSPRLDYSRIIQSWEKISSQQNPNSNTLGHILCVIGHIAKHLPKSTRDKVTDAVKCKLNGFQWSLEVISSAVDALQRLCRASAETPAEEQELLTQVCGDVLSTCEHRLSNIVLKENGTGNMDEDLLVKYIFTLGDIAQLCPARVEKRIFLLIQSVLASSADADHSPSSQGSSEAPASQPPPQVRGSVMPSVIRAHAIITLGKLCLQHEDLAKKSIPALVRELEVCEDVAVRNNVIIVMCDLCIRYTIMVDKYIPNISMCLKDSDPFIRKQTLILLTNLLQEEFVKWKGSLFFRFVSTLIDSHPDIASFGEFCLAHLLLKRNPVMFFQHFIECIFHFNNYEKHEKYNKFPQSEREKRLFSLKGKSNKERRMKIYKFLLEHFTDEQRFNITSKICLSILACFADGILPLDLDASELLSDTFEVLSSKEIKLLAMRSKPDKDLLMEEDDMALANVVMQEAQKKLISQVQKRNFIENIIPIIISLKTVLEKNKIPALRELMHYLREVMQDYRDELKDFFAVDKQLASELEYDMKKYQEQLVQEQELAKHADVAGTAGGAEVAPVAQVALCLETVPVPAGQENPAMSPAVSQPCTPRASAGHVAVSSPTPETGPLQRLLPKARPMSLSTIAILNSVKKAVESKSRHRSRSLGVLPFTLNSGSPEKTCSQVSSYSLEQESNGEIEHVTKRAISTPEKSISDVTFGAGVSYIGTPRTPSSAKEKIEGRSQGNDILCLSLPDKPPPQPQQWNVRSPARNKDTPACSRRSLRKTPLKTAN
UniProt P48643, whole entry: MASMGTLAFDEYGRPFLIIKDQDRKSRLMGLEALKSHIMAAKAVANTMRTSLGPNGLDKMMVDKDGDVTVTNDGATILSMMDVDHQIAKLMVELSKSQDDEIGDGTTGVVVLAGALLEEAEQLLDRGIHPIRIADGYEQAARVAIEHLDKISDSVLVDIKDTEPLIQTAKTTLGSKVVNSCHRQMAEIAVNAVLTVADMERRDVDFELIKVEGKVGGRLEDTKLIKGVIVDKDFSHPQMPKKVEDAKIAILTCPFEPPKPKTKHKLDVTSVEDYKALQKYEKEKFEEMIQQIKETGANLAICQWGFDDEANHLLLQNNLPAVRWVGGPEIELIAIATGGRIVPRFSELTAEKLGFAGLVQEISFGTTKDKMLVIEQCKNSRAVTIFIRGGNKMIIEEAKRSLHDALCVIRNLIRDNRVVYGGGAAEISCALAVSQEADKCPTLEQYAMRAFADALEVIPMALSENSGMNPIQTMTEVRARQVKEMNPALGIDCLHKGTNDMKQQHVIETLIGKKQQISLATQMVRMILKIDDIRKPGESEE
UniProt P49915: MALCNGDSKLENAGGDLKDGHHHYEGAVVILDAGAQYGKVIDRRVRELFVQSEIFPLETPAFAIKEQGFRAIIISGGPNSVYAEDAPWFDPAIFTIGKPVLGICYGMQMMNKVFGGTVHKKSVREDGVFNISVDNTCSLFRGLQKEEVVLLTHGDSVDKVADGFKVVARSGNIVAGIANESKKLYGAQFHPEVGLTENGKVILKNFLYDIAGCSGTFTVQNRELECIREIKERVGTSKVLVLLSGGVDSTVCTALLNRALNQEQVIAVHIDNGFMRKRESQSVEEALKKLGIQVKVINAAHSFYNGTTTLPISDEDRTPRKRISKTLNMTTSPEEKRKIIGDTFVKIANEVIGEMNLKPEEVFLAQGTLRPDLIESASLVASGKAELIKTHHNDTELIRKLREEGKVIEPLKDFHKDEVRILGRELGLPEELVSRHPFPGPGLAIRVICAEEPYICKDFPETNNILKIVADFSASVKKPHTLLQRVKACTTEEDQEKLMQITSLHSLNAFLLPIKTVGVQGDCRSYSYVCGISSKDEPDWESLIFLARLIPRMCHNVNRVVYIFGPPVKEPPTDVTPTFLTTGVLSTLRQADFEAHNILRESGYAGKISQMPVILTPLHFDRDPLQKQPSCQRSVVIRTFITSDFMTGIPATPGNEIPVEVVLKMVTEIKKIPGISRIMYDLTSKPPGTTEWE
UniProt P37268: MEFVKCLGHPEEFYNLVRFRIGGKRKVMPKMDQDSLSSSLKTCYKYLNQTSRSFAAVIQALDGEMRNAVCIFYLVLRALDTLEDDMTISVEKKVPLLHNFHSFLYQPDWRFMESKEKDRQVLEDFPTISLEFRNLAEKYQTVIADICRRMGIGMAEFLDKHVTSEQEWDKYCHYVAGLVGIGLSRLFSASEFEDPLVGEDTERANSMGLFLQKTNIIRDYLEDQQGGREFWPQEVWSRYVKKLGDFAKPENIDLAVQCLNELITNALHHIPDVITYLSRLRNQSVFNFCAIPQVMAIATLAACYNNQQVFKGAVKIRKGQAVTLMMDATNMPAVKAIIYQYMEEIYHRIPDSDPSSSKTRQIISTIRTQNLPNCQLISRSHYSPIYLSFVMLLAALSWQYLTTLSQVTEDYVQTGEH
UniProt P51688: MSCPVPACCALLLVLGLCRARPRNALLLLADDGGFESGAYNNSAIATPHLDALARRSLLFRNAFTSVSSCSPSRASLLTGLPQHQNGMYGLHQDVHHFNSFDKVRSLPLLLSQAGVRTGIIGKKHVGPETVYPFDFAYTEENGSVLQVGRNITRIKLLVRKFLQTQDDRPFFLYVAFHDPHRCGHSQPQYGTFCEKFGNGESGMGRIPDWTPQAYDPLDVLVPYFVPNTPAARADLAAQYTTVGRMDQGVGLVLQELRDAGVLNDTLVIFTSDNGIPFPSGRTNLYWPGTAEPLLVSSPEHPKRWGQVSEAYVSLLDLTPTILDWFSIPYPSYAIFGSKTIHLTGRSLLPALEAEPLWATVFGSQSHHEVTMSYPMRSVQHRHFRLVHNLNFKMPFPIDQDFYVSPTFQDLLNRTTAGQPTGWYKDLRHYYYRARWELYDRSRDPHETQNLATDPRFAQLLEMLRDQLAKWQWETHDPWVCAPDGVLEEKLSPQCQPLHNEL
UniProt P50990: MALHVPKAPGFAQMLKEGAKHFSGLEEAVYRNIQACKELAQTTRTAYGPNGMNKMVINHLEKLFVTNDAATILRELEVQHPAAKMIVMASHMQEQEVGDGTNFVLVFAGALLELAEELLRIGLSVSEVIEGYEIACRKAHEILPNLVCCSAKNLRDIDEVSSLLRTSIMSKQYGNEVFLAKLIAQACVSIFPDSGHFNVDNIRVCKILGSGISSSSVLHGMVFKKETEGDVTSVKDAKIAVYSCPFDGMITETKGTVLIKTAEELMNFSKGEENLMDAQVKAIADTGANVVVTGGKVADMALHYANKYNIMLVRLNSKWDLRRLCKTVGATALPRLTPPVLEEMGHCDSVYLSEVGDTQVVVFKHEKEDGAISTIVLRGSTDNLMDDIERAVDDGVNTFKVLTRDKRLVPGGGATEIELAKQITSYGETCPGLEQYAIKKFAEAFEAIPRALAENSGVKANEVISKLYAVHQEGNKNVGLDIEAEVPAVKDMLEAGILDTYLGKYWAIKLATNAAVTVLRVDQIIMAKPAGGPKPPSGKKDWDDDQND
UniProt P49748: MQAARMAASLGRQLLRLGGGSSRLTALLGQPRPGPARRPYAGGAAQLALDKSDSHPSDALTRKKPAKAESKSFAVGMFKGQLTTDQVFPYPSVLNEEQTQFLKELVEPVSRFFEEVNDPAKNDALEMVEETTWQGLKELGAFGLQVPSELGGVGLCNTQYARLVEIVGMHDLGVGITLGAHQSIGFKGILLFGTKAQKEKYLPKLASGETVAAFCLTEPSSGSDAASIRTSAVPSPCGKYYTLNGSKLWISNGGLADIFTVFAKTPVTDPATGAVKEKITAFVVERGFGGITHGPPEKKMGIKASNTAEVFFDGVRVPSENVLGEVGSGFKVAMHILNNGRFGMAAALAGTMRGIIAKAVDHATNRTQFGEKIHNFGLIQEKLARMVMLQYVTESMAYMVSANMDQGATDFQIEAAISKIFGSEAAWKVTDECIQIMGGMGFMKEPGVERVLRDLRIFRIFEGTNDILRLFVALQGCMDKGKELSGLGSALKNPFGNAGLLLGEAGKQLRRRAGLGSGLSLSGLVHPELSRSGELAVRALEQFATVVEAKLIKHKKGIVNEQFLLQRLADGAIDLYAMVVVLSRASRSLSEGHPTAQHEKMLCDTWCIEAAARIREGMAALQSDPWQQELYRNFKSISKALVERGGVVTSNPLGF
UniProt P46199: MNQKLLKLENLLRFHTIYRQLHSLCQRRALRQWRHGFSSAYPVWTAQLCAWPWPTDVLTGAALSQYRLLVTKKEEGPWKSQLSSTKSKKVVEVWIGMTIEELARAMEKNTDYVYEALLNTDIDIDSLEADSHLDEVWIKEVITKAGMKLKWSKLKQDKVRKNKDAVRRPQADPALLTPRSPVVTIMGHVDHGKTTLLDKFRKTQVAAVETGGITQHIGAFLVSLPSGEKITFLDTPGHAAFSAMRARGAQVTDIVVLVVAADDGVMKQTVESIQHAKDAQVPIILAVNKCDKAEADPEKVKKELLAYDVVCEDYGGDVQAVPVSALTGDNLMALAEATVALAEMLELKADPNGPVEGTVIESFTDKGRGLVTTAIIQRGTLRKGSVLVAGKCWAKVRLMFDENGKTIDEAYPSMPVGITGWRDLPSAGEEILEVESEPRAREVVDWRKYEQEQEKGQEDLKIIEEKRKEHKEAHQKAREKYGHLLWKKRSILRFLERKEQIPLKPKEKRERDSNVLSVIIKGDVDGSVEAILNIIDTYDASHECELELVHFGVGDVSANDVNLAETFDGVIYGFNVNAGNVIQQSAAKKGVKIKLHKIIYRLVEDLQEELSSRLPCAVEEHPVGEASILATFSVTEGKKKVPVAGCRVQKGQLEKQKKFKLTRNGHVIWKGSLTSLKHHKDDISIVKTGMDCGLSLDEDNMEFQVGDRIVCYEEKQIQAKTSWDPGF

Compound: CCc1cnccc1C(=O)Nc1cc2c(cc1F)NC(=O)CC2
Test: melting temperature shift (DMSO Tm minus MBE1-treated Tm) in cellular thermal proteome profiling; higher = less thermal stabilization by MBE1 (negative = stabilized by MBE1)
Details: A375; MBE1 concentration: 100 nM

Row | Target | melting temperature shift [°C]
1 | LRBA (UniProt P50851) | -0.248
2 | LSS (UniProt P48449) | -0.449
3 | IQGAP1 (UniProt P46940) | 0.629
4 | NASP (UniProt P49321) | -0.281
5 | UniProt P48729 | -0.208
6 | NOTCH1 (UniProt P46531) | 4.15
7 | UniProt P37275 | -1.03
8 | PCYT1A (UniProt P49585) | -0.952
9 | ANP32A (UniProt P39687) | -0.753
10 | USP11 (UniProt P51784) | -0.211
11 | MCM2 (UniProt P49736) | 0.189
12 | NCAPD3 (UniProt P42695) | -0.769
13 | CCT5 (UniProt P48643) | -0.91
14 | MDH1 (UniProt P40925) | -0.464
15 | ETFB (UniProt P38117) | -0.812
16 | GMPS (UniProt P49915) | 0.403
17 | ID1 (UniProt P41134) | -5.17
18 | ATP5O (UniProt P48047) | -0.836
19 | FDFT1 (UniProt P37268) | -0.055

Row | Target | melting temperature shift [°C]
20 | UniProt P49841 | -0.912
21 | UniProt P51688 | -4
22 | UniProt P51587 | -0.916
23 | UniProt P38398 | -0.147
24 | ATP6V1A (UniProt P38606) | 0.482
25 | GGCX (UniProt P38435) | 1.79
26 | ACTR1B (UniProt P42025) | -1.44
27 | RBM34 (UniProt P42696) | 0.269
28 | IRAK1 (UniProt P51617) | -1.26
29 | RECQL (UniProt P46063) | -0.77
30 | CRKL (UniProt P46109) | 0.904
31 | CCT8 (UniProt P50990) | -1.32
32 | EIF4A3 (UniProt P38919) | -0.315
33 | ACADVL (UniProt P49748) | -1.23
34 | ABL2 (UniProt P42684) | -1.08
35 | GALK1 (UniProt P51570) | -0.443
36 | MTIF2 (UniProt P46199) | -0.243
37 | CASP4 (UniProt P49662) | 0.556

Same assay, conditions: A375; MBE1 concentration: 1 uM

Row | Target | melting temperature shift [°C]
38 | LRBA (UniProt P50851) | 0.379
39 | LSS (UniProt P48449) | -0.101
40 | IQGAP1 (UniProt P46940) | 0.421
41 | NASP (UniProt P49321) | -0.159
42 | UniProt P48729 | 0.122
43 | NOTCH1 (UniProt P46531) | 1.8
44 | UniProt P37275 | 0.0305
45 | PCYT1A (UniProt P49585) | -0.372
46 | ANP32A (UniProt P39687) | 1.33
47 | USP11 (UniProt P51784) | -0.205
48 | MCM2 (UniProt P49736) | 0.0488
49 | NCAPD3 (UniProt P42695) | -0.525
50 | CCT5 (UniProt P48643) | 0.563
51 | MDH1 (UniProt P40925) | -0.659
52 | ETFB (UniProt P38117) | 0.698
53 | GMPS (UniProt P49915) | 0.611
54 | ID1 (UniProt P41134) | -2.07
55 | ATP5O (UniProt P48047) | -1.73
56 | FDFT1 (UniProt P37268) | 0.47

Row | Target | melting temperature shift [°C]
57 | UniProt P49841 | -0.503
58 | UniProt P51688 | 1.32
59 | UniProt P51587 | 0.513
60 | UniProt P38398 | -0.551
61 | ATP6V1A (UniProt P38606) | 0.8
62 | GGCX (UniProt P38435) | 0.486
63 | ACTR1B (UniProt P42025) | 0.661
64 | RBM34 (UniProt P42696) | -0.596
65 | IRAK1 (UniProt P51617) | -0.278
66 | RECQL (UniProt P46063) | -0.309
67 | CRKL (UniProt P46109) | -0.452
68 | CCT8 (UniProt P50990) | -1.8
69 | EIF4A3 (UniProt P38919) | 0.462
70 | ACADVL (UniProt P49748) | -0.702
71 | ABL2 (UniProt P42684) | -0.781
72 | GALK1 (UniProt P51570) | 0.221
73 | MTIF2 (UniProt P46199) | -0.352
74 | CASP4 (UniProt P49662) | -0.159
